Assay results from patent US10421820B2, “Bruton's tyrosine kinase as anti-cancer drug target” (The Research Foundation for The State University of New York, priority 2008, dated 2019).
At least one structure is not confirmed: it was looked up by name or label, or the drawing left a doubt.

What was measured:
[1] = test system: Her2, BTK, AKT and ERK phosphorylation; assay: Immunofluorescence staining of phosphorylation in SKBR3 xenograft tumor tissues; type: in vivo, mice; details: ibrutinib treatment
[2] = test system: MCF10A, MCF7 and BT474 cells; assay: Cell counts after 48 hours of BTK inhibitor treatment; type: cell-based, human; details: 10 and 20 μmol/l for 48 hours; MCF10A normal control, MCF7 and BT474 cancer lines
[3] = test system: HER2, AKT and ERK phosphorylation; assay: Immunoblots of HER2, AKT and ERK phosphorylation in SKbr3 cells with or without EGF; type: cell-based, human; details: 1 μM, 3 hours

In the case of `C=CC(=O)N1CCC[C@@H](n2nc(-c3ccc(Oc4ccccc4)cc3)c3c(N)ncnc32)C1` [Ibrutinib], the “phosphorylation of Her2, BTK, AKT and ERK in tumor tissues” value [1] is reported as “inhibited”, the “cell counts, percentage of control” value [2] is reported as “results in breast cancer cell death” and the “ERRB2 (HER2/neu) activation” value [3] is reported as “blocks ERRB2 (HER2/neu) activation”.
